The text below walks through data of paper PMC6166728, “Structure–function analyses of the bacterial zinc metalloprotease effector protein GtgA uncover key residues required for deactivating NF-κB” (The Journal of Biological Chemistry, 2018).

Sequences of proteins named here, by UniProt entry; tags and fusion partners are left off.
UniProt Q04206: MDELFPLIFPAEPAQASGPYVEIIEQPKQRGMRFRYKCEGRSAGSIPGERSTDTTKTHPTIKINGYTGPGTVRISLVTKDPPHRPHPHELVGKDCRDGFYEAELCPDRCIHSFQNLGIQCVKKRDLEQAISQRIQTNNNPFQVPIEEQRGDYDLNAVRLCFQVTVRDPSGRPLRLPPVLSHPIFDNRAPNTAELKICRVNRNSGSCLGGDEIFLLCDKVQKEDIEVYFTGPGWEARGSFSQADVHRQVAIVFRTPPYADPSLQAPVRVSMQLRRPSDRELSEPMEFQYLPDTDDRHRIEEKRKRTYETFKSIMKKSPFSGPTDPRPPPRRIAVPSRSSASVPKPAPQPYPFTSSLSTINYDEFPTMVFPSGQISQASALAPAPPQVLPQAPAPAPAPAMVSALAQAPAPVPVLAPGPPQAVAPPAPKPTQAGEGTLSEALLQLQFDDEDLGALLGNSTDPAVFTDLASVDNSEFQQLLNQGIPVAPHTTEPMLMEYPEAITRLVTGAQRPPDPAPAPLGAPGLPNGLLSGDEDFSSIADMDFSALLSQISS

For test [1], the target named is His6–GST–GtgA^E183A/D159A (Salmonella Typhimurium strain ATCC 14028s). Description: pull-down; LUMIER binding assay: 5 μg purified GST or His6–GST–GtgA variant and GSH–Sepharose 4B incubated 2 h at 4 °C with post-nuclear supernatant of 293ET cells expressing p65–Renilla; 20 mM Tris pH 7.4, 150 mM NaCl, 5% glycerol, 0.1% Triton X-100; eluted with 10 mM GSH, Renilla luciferase activity read; only the target purified.

The target of test [2] is His6–GST–GtgA^E183A (Salmonella Typhimurium strain ATCC 14028s). The test is described as above.
In test [3] the target is His6–GST–GtgA^E183A/Q192A (Salmonella Typhimurium strain ATCC 14028s). The description is as above.
The target in test [4] is His6–GST–GtgA^E183A/R221A (Salmonella Typhimurium strain ATCC 14028s). Described as above.
Test [5] concerns the target His6–GST–GtgA^E183A/S160A (Salmonella Typhimurium strain ATCC 14028s). Described as above.
For test [6], the target named is GtgA(20–228)^E183Q (Salmonella Typhimurium strain ATCC 14028s). The test is described as follows: SEC; HiLoad 16/60 Superdex 75, 25 mM HEPES pH 7.5, 150 mM NaCl, 0.5 mM TCEP; GtgA(20–228)^E183Q alone; both purified.
Test [7] has the same target. Description: crystal structure; Zn2+-bound GtgA(20–228)^E183Q alone, 24 mg/ml; sitting drop, 20 °C, 0.1 M Tris pH 8.5, 25% (v/v) isopropyl alcohol, 20% (w/v) PEG 3350; two molecules in the asymmetric unit; both purified.

Results are given in words; binding and its absence hold for the method and conditions named. For some of these results: In cells and extracts the contact can be indirect. Some entries that bind do so weakly or less than the wild type.

Consider p65–Renilla (from UniProt Q04206 1-551), for which the binding result in test [1], in test [2], in test [3], in test [4] and in test [5] was “binds” each time.

For “GtgA(20–228)^E183Q (from UniProt A0A0F6AZI6 20-228) (enzyme)”, the binding result in test [6] and in test [7] was “no binding” in each case.
